Results deposited as PubChem BioAssay AID504804 (Drosophila RNAi Screening Center, 2011).
The screen tested about 19,000 reagents; this is an unselected part of those with a known target gene and a result. In the full data, 47 (0.25%) were called active. 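Signals are raw, not normalised; exact z-scores behind calls not deposited; actives needed confirmation, so some wells reaching 2 SD are inactive.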 Reagents against one gene are numbered here. A plus sign joins genes that one reagent is predicted to hit.

Assay: 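dsRNAs that improve Kc cell survival under doxorubicin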 (primary screen)
Cell system: Drosophila Kc cells
Reagents: long dsRNA against Drosophila genes, 0.5 µg dsRNA per well
Time to read-out: 96 h (48 h knock-down, then 48 h drug)
Conditions: doxorubicin 5 µg/ml for 48 h, added 48 h after dsRNA
Measured: 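Viability measured as cellular ATP by luminescence after 48 h knock-down then 48 h doxorubicin at 5 µg/ml; unnormalised plate counts for each replicate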
Scale: raw ATP luminescence: higher = more viable cells, protection from doxorubicin
Call rule: 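z-score of 2 or more over plate mean in both duplicates, retained only when retests and separate dsRNAs confirm the protection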

For Syt14 (Synaptotagmin 14), the values are raw ATP luminescence, replicate 1 = 81093; raw ATP luminescence, replicate 2 = 69153; inactive. Trs31 (TRAPP subunit 31) gave raw ATP luminescence, replicate 1 = 60827; raw ATP luminescence, replicate 2 = 48303; inactive. Depletion of CtsL4 (Cathepsin L4) gave: raw ATP luminescence, replicate 1 = 48830; raw ATP luminescence, replicate 2 = 81287; inactive. For Oatp33Eb (Organic anion transporting polypeptide 33Eb) the deposit lists raw ATP luminescence, replicate 1 = 60750; raw ATP luminescence, replicate 2 = 77767; inactive. Skadu gave raw ATP luminescence, replicate 1 = 2.79e5; raw ATP luminescence, replicate 2 = 2.62e5; inactive. Silencing of CG7137 gave: raw ATP luminescence, replicate 1 = 71423; raw ATP luminescence, replicate 2 = 66747; inactive.

Silencing of CG12516 came out at: raw ATP luminescence, replicate 1 = 78560; raw ATP luminescence, replicate 2 = 47730; inactive. After knock-down of CG10194, the record shows raw ATP luminescence, replicate 1 = 76643; raw ATP luminescence, replicate 2 = 55663; inactive. Against Ugt49C1 (UDP-glycosyltransferase family 49 member C1), the entry reads raw ATP luminescence, replicate 1 = 46450; raw ATP luminescence, replicate 2 = 35040; inactive. Silencing of CG43078 #1 gave: raw ATP luminescence, replicate 1 = 39863; raw ATP luminescence, replicate 2 = 41227; inactive. Against CG43078 #2, the values are raw ATP luminescence, replicate 1 = 59077; raw ATP luminescence, replicate 2 = 47490; inactive. Knock-down of CG8944 resulted in: raw ATP luminescence, replicate 1 = 1.87e5; raw ATP luminescence, replicate 2 = 1.61e5; inactive.

Against CG8569, the values are raw ATP luminescence, replicate 1 = 61217; raw ATP luminescence, replicate 2 = 50230; inactive. Knock-down of Jon44E (Jonah 44E) resulted in: raw ATP luminescence, replicate 1 = 32993; raw ATP luminescence, replicate 2 = 81367; inactive. For CG4891, the entry reads raw ATP luminescence, replicate 1 = 87543; raw ATP luminescence, replicate 2 = 79480; inactive. CG12607 showed raw ATP luminescence, replicate 1 = 62340; raw ATP luminescence, replicate 2 = 63953; inactive.

Quoted from above, 2 entries:
CG12516 → raw ATP luminescence, replicate 1: 78560; raw ATP luminescence, replicate 2: 47730; Outcome: inactive
CG10194 → raw ATP luminescence, replicate 1: 76643; raw ATP luminescence, replicate 2: 55663; Outcome: inactive

Further results follow:
With knock-down of Tbc1d8-9 (TBC1 domain family member 8/9) the results were raw ATP luminescence, replicate 1 = 24353; raw ATP luminescence, replicate 2 = 21990; inactive. Rbbp5 (Retinoblastoma binding protein 5) gave raw ATP luminescence, replicate 1 = 59027; raw ATP luminescence, replicate 2 = 63130; inactive. Cipc (Clock interacting protein circadian) scored raw ATP luminescence, replicate 1 = 59410; raw ATP luminescence, replicate 2 = 68150; inactive. Silencing of CG10184 gave: raw ATP luminescence, replicate 1 = 38827; raw ATP luminescence, replicate 2 = 29393; inactive. Knock-down of E(spl)m4-BFM (Enhancer of split m4, Bearded family member) resulted in: raw ATP luminescence, replicate 1 = 68760; raw ATP luminescence, replicate 2 = 57740; inactive. With knock-down of CG15643 the results were raw ATP luminescence, replicate 1 = 3.97e5; raw ATP luminescence, replicate 2 = 3.30e5; inactive.

With knock-down of scpr-A + scpr-C + scpr-B, the screen gave raw ATP luminescence, replicate 1 = 56187; raw ATP luminescence, replicate 2 = 48140; inactive. With knock-down of CG17168 the results were raw ATP luminescence, replicate 1 = 2.48e5; raw ATP luminescence, replicate 2 = 2.58e5; inactive. vis + achi gave raw ATP luminescence, replicate 1 = 48783; raw ATP luminescence, replicate 2 = 35993; inactive. Myo31DF (Myosin 31DF) showed SD above plate mean at least 2 SD above plate mean; raw ATP luminescence, replicate 1 = 1.38e5; raw ATP luminescence, replicate 2 = 1.06e5; active. obst-E (obstructor-E) gave raw ATP luminescence, replicate 1 = 1.05e5; raw ATP luminescence, replicate 2 = 53640; inactive. With knock-down of CG3420, the record shows raw ATP luminescence, replicate 1 = 30843; raw ATP luminescence, replicate 2 = 50993; inactive.
